PubChem BioAssay AID1508600 (Functional Genomics Laboratory (NCATS/FGL), 2020)
Among all 53,000 sequences or so, about 3,700 (7%) were called active.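 The calls were made as follows: active = gene knockdowns whose robust z-score for IL-1 alpha signal is at least 2 or at most -2, so actives lie on both sides; inactive = the rest.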 This is one part of the list.

test: Components of the Cytosolic LPS Sensing Pathway: Gene Identification via Genome-wide siRNA Screen; settings: RAW264.7 macrophages, IL-1a HTRF, actives lie on both sides, screened at 100 nM (by protocol), cells primed 5 h with Pam3CSK4 first;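 also: robust z of the log signal after scaling to non-targeting control siRNA wells of the plate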
In short: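 Read-out: IL-1a HTRF on supernatant, divided by plate negative-control median ×100, log-transformed and converted to robust z-score. Cells were RAW264.7 given 100 nM siRNA, Pam3CSK4-primed 5 hours, then LipidA-transfected 24 hour.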

z-score, inactive:
GGUGGAACCUAUGUACUUUTT against Cygb -1.05
GGAAUUCUCUAUACCAAGATT against P2ry10b 0.51
GGAGGGCAUGGAGAACAUGTT against Pkn3 -0.94
CCAAAGCCAGCAAAUAAACTT against Scnn1g 0.565
CGAGCUGUUAGAAUUCAGATT against Jakmip1 -0.818
CCCAUUAACCACUCCUAAATT against Tafa2 -1.13
GGGACUUGCAUUUUAUAUUTT against Cfap61 0.33
GGUCCAGCUAUAAAGACAATT against Slc10a5 0.297
GCCUAAGACCAACUGGCAATT against Theg 0.735
GCCUAUCACAUCUUAUCUGTT against 4930503B20Rik -0.225
GUAGUAACAGGAUCUUCUUTT against Vmn1r6 -0.293
GGGCUCAUCCUUAAAGAUUTT against Kdm5c -0.0812
GCCUUUCAACUCACCAGCCTT against Zfp574 0.617
GGACCUAAAGAUUAUCUUATT against Rgs4 0.5
CCCUAGCUAUCAAGAUAUUTT against Hace1 0.724
GGUUCUGAAAGCAAACAAATT against Fgf18 -0.91
GGAUACAGCAGAUCUUAUUTT against Haus2 0.717
CGUGUAAGUUUUGAUUCUATT against Calr 0.815
GUCGCUCUUCUAAAACUUUTT against Mob1b 0.278
CGACAUUUUACUAAGAGAUTT against Idnk -0.895
GGUGACAAAGGUGUUAGAATT against Itpkc -0.252
GCCUACAGCUCUUUACACATT against Gpr89 0.593
GCCAGGCAUCUACUUCAUUTT against Pepd -1.06
GGGAUAAUAAUGUUGAUUGTT against Mrc1 -0.152
CCCAGUUUAGAUUGGUCAATT against Igfbp5 1.15
GGACCUGAAUAAGACUAUUTT against Lgmn -0.429
GGAGUGGUAUACCAUGUCUTT against Nipal4 -0.884
GGAAGUUGGAAAGAACCUATT against Bcl2a1c 0.881
GCACACGUCCUAUAAAAAUTT against Rad54b 0.532
GGAAGCAAUGAUCAAUUAUTT against Ppp2r3c 0.752
GGAUAGGAAAAAAUCACCATT against Prpf4b -1.14
GGAAUGGUAAUGCUAUUGGTT against Tmem39a 0.169
GGAAGAAACAGGGAUUGAUTT against Mical2 -0.281
GGAGUUGCUUGAUUUUAAATT against Pdk1 0.459
GGACAGAUACGUUAUCAAGTT against Il3 1.31
GGUGUUCGGUGUCCUGGAATT against Pctp -0.2
CGUGGUGAGAUCAUAAAACTT against Bbox1 0.0594
GCAGCAAGACCUACGAAGATT against Sel1l 0.566
GCUCAUUGAGAUAUCACAATT against Cabp2 -0.4
GGAAACUGUUUUAGAUAAGTT against Tdrd6 -0.251
GGCUUUACUACUCAACCAUTT against Gjb3 -0.388
GGGAAAGGCAUUUAUUUUCTT against Mptx1 1.16
GUCUUGACCUUUGUAACUGTT against Olfr197 0.418
GGAGCUGUCCCAAGAAAUCTT against Ints5 0.434
GGUUCUGCUGGACAACUUUTT against Cyp46a1 -0.377
GGCAAGUCCAUGGUCAUGUTT against Smg9 -1.19
GGUUCAGACGACAAGCAGATT against 9530068E07Rik 0.28
GGAAGUAACAGAGAAGGAATT against Mtmr12 0.00409
CCCUACAAAGUAUAUCGAATT against Irf9 0.283
CCUGAACAGAUUGAAGAGUTT against Myl3 -0.0652
GGAUGCUUGUGCAAAGAUGTT against Anks1b 0.862
GCAUAACUUAAACUGCUCATT against Zfp12 1.91
GGCUAUUCAGGACUACAGCTT against St3gal2 -0.982
CCAGGAUCAUUCUUCUGAATT against Chrna7 -0.563
GCCUUUGAGAGCAGCCAGATT against Ypel3 0.621
CCUUAAAACAGAUCCACUUTT against Nell2 0.473
CGAUCUAGUCCGCCAUUACTT against Lck -1.3
GGGUAUACCCAACUUUUACTT against Hhex -0.652
GGCGAGUUUUCCUCUUCAGTT against Sync 1.08
CGUCUGUCAGAAACUACACTT against Atrnl1 0.864
CCAACCAAUAGUUCUAUACTT against Ppp3r2 0.0338
GGUCCAACCUUAUUGAAUGTT against Tlr6 -0.345
GGAGAAAAAAAACUCCAUUTT against Micu2 0.536
GGAAGGAGCUUCGAAAAAATT against Pex16 0.129
CGAAACUCCCAUUGUUAAUTT against Zfp521 1.29
GGCUGAAAUUGACAAGUUGTT against Ing4 1.02
GCAAAUGGAUGCGCUAAGCTT against Clec11a 0.912
GGGAUGGUGAUGGUGAAAGTT against Qprt -0.644
GGUUAACGAUGAAGAUGUATT against Rab23 -1.05
CCCAUGCUUAUUACCGAGATT against Rab37 0.0517
CCUCUCCAGUGUCGACAUUTT against Olfr51 0.347
GCCAACCUUAACUAUUAAGTT against F2rl2 1.12
GGUUCAACUUCACACUGAGTT against Mettl22 1.08
CCUAAAUAUCCAAGACAUUTT against Mcm3 0.982
GGCCACCUAUGAUGGAAAUTT against Kdelr2 -0.379
GGCAAAUUGAGUUUUAGCATT against Wipf1 -0.853
GGUCACCGAUGACUACAUCTT against Ccr7 0.33
GGACCUCACAAUGAGUAUGTT against Thtpa 1.23
GCAAUUCUGUGUUCAUCCGTT against Phex 0.636
GGUCUUCAUAUUUCUUGCUTT against Olfr10 -1.63
GCUCUAUUCCGGUGGAUGUTT against Tbc1d10b 0.827
GGCGCAUUACCAGAGCUUCTT against Tnpo2 -0.425
GGUCUGAACAGAAGAUUUGTT against Pdlim1 0.603
GGCAUUUCUUUCACUAGCUTT against Olfr618 0.833
GCCGCUGGUUCAUUAUCACTT against Tbx2 0.142
GGAUUUAACAACGAGAGAATT against Rasgrf2 -0.463
GGUCAACGUGAAGACUUCCTT against Ly6a 0.89
GCCUUACUCUCUCAGUCCUTT against Gm5115 -0.269
GGAGGAAGUCGUCUUUGGATT against Olfr1377 1.3
GGACUGUCCAAAAGAAAGGTT against Tnfrsf18 -0.267
GGAAUCUGCUAUGCUUAAATT against Rdh16f2 -1.84
CGCAGUUCAUCGCAUGAUUTT against Arhgef12 0.611
GGAAAACCAUGACAUCAUATT against Man2a2 -0.818
GCUUUCAGUGAGGUACAAGTT against Gm4425 -1.25
GCGAGCUCGAUUGAAAACUTT against Dlg3 1.3
CCAGAUGCUGACUUGAACATT against Dpep1 0.299
GGAUUUGUGCAGGAAUGCCTT against Slc6a18 0.171
GGCAAGUCUGUGUGCAGAUTT against Olfr267 0.579
CCAGACCUACAAUGAGAUGTT against Gga1 -0.699
GGAAAAUCUCUUGGGACGATT against Myo6 1.46
GCAGCCGCUUUAAUUAAAATT against Apaf1 1.49
GGCCACUUGUCUCAUUGUGTT against Xlr4c -1.93

Seven entries picked at random from those above, as already listed:
z-score, inactive:
GGAAGUAACAGAGAAGGAATT against Mtmr12 0.00409
GGUUCUGCUGGACAACUUUTT against Cyp46a1 -0.377
GGAGGGCAUGGAGAACAUGTT against Pkn3 -0.94
GGGUAUACCCAACUUUUACTT against Hhex -0.652
GGCUUUACUACUCAACCAUTT against Gjb3 -0.388
GCUUUCAGUGAGGUACAAGTT against Gm4425 -1.25
CGAAACUCCCAUUGUUAAUTT against Zfp521 1.29

Next part.

z-score, active:
GGCCUGAACUUUUUAUUGATT against Olfr533 -2.19
GGAGGGAAUAGAGAAUCGGTT against A930024E05Rik 3.7
GACUUCGGACAAAUGGUGCTT against Lce1f 2.27
GGCAAUAUGUCGUAUGUAATT against Sfmbt2 -2.13
GGAAUUCCCAAGAGAAGGATT against Gk -5.27
